From doi:10.1101/2021.08.09.455663

The chains behind the UniProt entries cited, without tags or fusion partners.
UniProt P42224: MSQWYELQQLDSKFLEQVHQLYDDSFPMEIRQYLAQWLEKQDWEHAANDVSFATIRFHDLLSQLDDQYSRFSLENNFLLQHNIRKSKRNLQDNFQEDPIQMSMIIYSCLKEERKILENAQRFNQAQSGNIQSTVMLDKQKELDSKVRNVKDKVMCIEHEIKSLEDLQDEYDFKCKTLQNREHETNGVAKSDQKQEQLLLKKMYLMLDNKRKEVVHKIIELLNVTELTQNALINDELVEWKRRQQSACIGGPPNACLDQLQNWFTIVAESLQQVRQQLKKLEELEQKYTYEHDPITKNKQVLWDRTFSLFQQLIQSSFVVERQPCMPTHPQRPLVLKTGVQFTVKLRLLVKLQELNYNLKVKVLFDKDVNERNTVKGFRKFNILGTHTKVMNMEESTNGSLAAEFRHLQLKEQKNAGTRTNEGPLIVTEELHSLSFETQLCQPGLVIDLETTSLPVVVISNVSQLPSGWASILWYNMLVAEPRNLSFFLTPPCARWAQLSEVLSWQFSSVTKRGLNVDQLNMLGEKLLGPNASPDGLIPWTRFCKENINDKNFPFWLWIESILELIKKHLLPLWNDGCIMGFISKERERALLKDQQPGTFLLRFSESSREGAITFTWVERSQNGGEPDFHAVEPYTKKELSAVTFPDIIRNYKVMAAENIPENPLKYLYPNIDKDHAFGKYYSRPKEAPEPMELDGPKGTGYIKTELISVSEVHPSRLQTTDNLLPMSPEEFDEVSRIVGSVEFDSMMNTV
UniProt Q09472: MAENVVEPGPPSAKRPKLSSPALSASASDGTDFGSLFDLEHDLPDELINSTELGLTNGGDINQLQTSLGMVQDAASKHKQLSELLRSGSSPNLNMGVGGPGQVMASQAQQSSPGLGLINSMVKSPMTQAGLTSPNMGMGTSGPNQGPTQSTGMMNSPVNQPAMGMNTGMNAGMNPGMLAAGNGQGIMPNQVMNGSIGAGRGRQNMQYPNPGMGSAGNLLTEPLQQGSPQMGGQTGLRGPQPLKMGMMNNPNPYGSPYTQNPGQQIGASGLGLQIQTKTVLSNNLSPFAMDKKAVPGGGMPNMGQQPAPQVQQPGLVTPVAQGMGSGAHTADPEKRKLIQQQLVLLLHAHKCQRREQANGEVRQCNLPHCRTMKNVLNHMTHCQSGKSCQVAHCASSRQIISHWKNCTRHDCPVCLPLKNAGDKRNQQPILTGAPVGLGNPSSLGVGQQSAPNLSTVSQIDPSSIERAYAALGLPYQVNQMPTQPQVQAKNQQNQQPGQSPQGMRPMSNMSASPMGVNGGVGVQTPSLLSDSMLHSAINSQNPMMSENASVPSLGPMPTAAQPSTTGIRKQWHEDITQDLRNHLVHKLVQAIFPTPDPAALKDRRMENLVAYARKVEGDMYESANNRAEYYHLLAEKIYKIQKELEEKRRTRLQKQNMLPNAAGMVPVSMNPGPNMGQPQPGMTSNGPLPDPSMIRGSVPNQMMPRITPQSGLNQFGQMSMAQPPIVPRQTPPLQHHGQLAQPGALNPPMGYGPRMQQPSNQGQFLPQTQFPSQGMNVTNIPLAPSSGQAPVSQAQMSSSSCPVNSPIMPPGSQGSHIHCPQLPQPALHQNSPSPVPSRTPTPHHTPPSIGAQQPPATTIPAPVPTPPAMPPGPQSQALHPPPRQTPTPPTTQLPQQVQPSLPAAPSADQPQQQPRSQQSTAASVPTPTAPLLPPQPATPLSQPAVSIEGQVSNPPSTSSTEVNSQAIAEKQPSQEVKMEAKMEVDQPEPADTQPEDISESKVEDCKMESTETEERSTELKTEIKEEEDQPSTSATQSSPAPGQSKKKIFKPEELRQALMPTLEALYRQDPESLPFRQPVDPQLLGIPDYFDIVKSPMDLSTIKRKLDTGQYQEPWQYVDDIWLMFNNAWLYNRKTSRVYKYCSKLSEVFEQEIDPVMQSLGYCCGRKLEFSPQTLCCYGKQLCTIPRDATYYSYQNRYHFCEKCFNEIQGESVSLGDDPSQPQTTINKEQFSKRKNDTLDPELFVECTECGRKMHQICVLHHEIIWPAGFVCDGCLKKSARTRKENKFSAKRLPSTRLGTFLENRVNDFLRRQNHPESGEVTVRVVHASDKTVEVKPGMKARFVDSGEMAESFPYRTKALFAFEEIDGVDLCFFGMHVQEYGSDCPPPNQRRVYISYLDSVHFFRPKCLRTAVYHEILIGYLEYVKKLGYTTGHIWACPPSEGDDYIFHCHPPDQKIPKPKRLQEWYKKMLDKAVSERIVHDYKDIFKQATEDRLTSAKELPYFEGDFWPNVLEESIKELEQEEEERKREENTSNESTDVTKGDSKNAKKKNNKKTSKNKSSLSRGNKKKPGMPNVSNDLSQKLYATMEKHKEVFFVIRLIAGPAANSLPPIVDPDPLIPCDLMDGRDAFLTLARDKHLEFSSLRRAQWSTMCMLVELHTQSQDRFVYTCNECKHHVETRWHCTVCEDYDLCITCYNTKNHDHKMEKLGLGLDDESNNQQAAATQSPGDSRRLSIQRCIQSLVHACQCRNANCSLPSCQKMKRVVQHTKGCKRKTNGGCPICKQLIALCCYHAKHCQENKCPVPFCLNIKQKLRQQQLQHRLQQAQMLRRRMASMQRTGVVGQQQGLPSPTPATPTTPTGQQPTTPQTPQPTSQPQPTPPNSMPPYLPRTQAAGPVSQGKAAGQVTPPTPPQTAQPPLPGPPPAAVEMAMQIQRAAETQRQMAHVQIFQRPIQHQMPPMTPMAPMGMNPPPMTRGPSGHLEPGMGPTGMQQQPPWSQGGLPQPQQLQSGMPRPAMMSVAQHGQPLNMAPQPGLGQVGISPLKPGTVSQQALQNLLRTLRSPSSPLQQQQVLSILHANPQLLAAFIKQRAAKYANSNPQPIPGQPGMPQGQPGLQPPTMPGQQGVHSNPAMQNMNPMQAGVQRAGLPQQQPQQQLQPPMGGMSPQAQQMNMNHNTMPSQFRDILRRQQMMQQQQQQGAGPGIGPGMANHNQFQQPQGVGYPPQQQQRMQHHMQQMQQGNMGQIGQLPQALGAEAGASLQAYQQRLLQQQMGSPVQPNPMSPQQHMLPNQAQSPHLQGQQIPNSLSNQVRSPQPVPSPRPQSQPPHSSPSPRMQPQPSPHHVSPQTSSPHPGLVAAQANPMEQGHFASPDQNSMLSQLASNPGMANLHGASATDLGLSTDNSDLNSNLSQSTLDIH
UniProt Q92793: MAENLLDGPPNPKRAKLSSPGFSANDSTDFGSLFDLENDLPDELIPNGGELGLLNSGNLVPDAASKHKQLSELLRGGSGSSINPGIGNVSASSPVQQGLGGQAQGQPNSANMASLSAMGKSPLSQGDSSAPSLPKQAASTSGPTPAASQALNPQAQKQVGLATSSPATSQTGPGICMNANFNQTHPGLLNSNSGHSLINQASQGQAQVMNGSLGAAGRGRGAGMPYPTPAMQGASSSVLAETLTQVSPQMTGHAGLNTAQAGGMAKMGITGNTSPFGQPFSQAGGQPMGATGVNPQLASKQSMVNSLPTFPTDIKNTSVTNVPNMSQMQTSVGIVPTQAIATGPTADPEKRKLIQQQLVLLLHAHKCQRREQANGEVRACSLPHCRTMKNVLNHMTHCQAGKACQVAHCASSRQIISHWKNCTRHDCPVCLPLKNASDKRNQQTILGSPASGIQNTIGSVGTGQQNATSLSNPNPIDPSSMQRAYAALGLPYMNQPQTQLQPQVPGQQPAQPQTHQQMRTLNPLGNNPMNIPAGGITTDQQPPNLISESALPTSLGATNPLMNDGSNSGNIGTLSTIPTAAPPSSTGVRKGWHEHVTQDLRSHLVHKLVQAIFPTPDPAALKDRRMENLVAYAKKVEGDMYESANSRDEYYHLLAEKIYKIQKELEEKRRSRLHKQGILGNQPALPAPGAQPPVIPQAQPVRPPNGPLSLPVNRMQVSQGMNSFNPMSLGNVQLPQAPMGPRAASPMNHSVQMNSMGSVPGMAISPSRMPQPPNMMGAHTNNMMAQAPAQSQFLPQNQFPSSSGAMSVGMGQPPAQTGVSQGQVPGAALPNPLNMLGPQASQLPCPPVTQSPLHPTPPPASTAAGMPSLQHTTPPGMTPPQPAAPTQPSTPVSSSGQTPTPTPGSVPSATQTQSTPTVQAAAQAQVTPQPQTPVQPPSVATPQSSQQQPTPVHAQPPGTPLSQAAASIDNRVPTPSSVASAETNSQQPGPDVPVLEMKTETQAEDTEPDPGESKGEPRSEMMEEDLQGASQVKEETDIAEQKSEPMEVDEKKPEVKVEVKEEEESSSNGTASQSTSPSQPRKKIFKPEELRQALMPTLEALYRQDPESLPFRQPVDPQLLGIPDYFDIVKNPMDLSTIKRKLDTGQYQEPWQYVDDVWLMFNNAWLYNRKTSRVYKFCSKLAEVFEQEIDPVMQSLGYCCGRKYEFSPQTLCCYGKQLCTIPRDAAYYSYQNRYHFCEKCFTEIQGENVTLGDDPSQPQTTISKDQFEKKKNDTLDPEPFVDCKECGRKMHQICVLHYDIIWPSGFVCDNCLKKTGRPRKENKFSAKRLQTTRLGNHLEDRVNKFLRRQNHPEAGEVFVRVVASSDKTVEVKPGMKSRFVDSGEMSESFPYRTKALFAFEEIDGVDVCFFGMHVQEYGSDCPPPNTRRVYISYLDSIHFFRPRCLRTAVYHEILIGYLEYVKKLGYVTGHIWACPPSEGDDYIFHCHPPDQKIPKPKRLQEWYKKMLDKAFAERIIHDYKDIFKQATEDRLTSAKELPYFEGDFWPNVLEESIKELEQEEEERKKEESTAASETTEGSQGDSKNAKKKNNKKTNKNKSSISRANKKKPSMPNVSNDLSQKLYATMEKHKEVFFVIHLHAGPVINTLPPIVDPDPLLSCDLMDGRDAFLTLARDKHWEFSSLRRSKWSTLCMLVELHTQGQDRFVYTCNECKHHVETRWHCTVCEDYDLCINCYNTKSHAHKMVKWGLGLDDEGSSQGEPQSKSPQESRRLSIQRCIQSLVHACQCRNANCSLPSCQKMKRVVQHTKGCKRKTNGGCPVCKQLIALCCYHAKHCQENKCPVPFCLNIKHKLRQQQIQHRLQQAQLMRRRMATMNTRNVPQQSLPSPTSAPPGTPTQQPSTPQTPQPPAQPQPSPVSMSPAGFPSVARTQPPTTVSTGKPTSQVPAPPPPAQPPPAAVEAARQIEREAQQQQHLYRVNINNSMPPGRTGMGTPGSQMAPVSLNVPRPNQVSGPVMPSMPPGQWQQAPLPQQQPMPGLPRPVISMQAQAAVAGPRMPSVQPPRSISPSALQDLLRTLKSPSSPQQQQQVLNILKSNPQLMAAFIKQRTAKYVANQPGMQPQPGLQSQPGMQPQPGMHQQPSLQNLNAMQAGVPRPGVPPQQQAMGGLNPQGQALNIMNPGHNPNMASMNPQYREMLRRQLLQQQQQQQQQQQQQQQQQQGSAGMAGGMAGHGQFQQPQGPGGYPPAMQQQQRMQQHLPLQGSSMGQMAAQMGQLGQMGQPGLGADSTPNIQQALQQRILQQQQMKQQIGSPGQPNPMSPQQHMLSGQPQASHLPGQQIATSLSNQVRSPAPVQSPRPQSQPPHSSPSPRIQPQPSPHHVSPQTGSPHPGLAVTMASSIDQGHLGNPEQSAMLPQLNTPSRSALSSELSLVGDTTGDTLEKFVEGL

Biological target: STAT1 (total and phosphorylated), HEK293T (human (endogenous in HEK293T)) (UniProt P42224)
Assay: affinity purification with mass spectrometry

Row | Substance | binding
1 | p300, HEK293T (from UniProt Q09472 1-2414) | binds
2 | CBP, HEK293T (from UniProt Q92793 1-2442) | binds

Results are given in words; binding and its absence hold for the method and conditions named. In cells and extracts the contact can be indirect. Here binding means that the protein was enriched with, or labelled near, the bait; the list need not be complete.
